Data: PMC8006934
These are yes or no findings as the source states them, for the method shown. Some results given as binding are weak or reduced against the parent protein; the word gives no strength.

Chains of the proteins cited; added tags and fusions are not shown. Residues count along the entry.
UniProt P24071, residues 22-227: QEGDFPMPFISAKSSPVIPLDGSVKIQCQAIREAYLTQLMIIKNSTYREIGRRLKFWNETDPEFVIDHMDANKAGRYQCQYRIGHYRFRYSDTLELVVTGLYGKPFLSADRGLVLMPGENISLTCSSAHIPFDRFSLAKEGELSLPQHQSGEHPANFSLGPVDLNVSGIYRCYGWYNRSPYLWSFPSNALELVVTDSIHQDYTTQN
UniProt P12318, residues 34-217: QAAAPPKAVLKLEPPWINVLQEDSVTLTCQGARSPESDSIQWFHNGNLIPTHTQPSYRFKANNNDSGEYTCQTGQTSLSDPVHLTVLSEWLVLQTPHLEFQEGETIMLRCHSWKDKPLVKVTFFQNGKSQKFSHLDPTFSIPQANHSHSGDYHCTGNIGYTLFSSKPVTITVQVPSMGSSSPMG
UniProt P31994, residues 43-217: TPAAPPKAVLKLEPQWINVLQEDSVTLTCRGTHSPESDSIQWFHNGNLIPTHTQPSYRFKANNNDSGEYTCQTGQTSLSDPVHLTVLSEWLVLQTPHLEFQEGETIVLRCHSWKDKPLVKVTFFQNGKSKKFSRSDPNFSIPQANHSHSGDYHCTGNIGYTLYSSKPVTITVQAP
UniProt P02741, residues 19-224: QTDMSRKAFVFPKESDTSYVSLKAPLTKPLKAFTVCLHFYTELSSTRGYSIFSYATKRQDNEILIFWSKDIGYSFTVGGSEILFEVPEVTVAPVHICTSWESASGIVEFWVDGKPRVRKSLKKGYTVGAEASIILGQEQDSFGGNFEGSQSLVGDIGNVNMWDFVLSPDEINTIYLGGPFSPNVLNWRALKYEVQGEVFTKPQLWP

Legend:
Test in all cases: SPR; IBIS MX96 array; C-terminally biotinylated FcRs spotted at different densities (100–1 nM) on one SensEye G-streptavidin sensor, blocked with biotinylated BSA; CRP injected in 2-fold dilutions from 0.98 to 2,000 nM in 20 mM Tris, 280 mM NaCl, 5 mM CaCl2, pH 8.0; KD by equilibrium fitting to Rmax = 500; both purified
[1] = biological target: IgA-Fc receptor I (FcαRI), human, extracellular domain, C-terminally biotinylated (human) (UniProt P24071)
[2] = biological target: FcγRIIa-H131, human, C-terminally biotinylated (human) (UniProt P12318)
[3] = biological target: FcγRIIb, human, C-terminally biotinylated (human) (UniProt P31994)

Row | binding [1] | binding [2] | binding [3] | Substance
1 | binds weakly | binds |  | C-reactive protein (native CRP from human fluid) (from UniProt P02741 19-224)
2 |  |  | binds | C-reactive protein (native CRP from human fluid) (from UniProt P02741 19-224) (other; other documents disagree on this pair)
